In patent US20150266963A1:
No constants are given. Whether binding was seen depends on the method and setting. Some entries that bind do so weakly or less than the wild type. Where a sequence is shown, tags or fusion partners need not be part of it.

T1: recombinant human CD70 (Flag-TNC-CD70) (human) (UniProt P32970)
T1 sequence (looked up): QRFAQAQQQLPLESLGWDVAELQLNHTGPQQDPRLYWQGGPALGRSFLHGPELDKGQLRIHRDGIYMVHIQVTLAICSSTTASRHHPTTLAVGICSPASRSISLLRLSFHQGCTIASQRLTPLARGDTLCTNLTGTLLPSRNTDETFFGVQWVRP


Target: T1, recombinant human CD70 (Flag-TNC-CD70) (human)
Experiment: inhibition ELISA: Flag-TNC-CD70 captured by anti-Flag mAb, Fab titrated, remaining binding of CD27-Fc detected

| Binder | binding |
| --- | --- |
| 5B2 (Fab, V domains shown) VH: QVQLVESGGDLVQPGGSLRLSCAASGFTVSNPAMSWVRQAPGKGLEWVSEITNYGYNRYYADSVKGRFTISTDNAKNTLYLQMNSLRSEDSAVYYCTASLGLEYGYGDWGQGTQVTVSS VL: QSALTQPPSVSGTLGKTLTISCAGTSSDVGYGNYVSWYQQLPGTAPKLLIYRVSTRASGMPDRFSGSKSGNTASLTISGLQSEDEADYYCASYTTNNKPVFGGGTHLTVLG | binds |
| 4D2 Fab (Fab, V domains shown) VH: QVQLQESGPGLVKPSQTLSLACTVSGGSITTSYYYWSWIRQPPGKGLEWMGAIGSRGSTYYSPSLKTRTSISRDTSKNQFTLQLSSVTPEDTAVYYCARVTGEITYNSGSYYYTLNLFDYWGQGTQVTVSS VL: QSVLTQPPSLSASPGSSVRLTCTLSSGNSVGNYDISWYQQKAGSPPRYLLYYYSDSYKNQGSGVPSRFSGSKDPSANAGLLLISGLQAEDEADYYCSVSNSGTYKPVFGGGSKLTVLG | binds |
| 9B2 Fab (Fab, V domains shown) VH: QLQVVESGGGLMQPGGSLRLSCAASGFTFSGSAMSWVRQAPGKGLEWVSSIYSHSMYTYYADSVKSRFTISTDNAKNTLYLQMNSLKPDDTAVYYCAASSDYEGLFVSWGQGTQVTVSS VL: QAVLTQPPSLSASPGSSVRLTCTLNSANSVGSYDISWYQQKAGSPPRYLLYYYSDSLSHQGSGVPSRFSGSTDASANAGLLLISGLQPEDEADYYCSAYNRGSHVFGGGTKLTVLG | binds |

Other lines, results leading:

| binding | Binder |
| --- | --- |
| binds | 9D1 Fab (Fab, V domains shown) VH: EVQLVESGGGLVQPGGSLRLSCAASGFTFSVYYMNWVRQAPGKGLEWVSDINNEGGTTYYADSVKGRFTISRDNAKNTLTLQMNSLKPEDTALYYCVRDAGYSNHVPIFDSWGQGTQVIVAS VL: QAVVTQEPSLSVSPGGTVTLTCGLSSGSVTSSHYPGWYQQTPGQAPRLLIFNTNSRHSGVPSRFSGSISGNKAALTITGAQPEDEADYYCALLNIDDGSTMFGGGTHLTVLG |
| binds | 24E3 Fab (Fab, V domains shown) VH: EVQLVESGGGLVQPGGSLRLSCAASGFTFSVYYMNWVRQAPGKGLEWVSDINNEGGTTYYADSVKGRFTISRDNAKNTLTLQMNSLKPEDTALYYCVRDAGYSNHVPIFDSWGQGTQVIVAS VL: QAVVTQEPSLSVSPGGTVTLTCGLTSGSVTSDNFPVWYQQTPGQAPRLLIYTINSRHSGVPSRFSGSITGNKAILTITGAQPEDEADYYCALYLENFANEFGGGTRLTVLG |
| binds | 24F2 Fab (Fab, V domains shown) VH: EVQLVESGGGLVQPGGSLRLSCAASGFTFSVYYMNWVRQAPGKGLEWVSDINNEGGTTYYADSVKGRFTISRDNAKNTLTLQMNSLKPEDTALYYCVRDAGYSNHVPIFDSWGQGTQVIVAS VL: QSALTQPSAVSVSLGQTARITCRGDTLRNYHANWYRQKPGQAPVLVIYGDDIRPSGIPERFSGSRLGGTATLTVSGAQAEDEADYYCQSSDSSGYRVVFGGGTKLTVLG |
| binds | 33D8 Fab (Fab, V domains shown) VH: EVQLVESGGGLVQPGGSLRLSCAASGFTFSVYYMNWVRQAPGKGLEWVSDINNEGGTTYYADSVKGRFTISRDNAKNTLTLQMNSLKPEDTALYYCVRDAGYSNHVPIFDSWGQGTQVIVAS VL: QSALTQPSTVSVSLGQTARITCRGDSLERYGTNWYQQKPGQAPVLVIYDDDSRPSGIPERFSGSSSGATAALTISGAQAEDEGDYYCQSADSSGNAVFGGGTHLTVLG |
| binds | 9E1 Fab (Fab, V domains shown) VH: EVQLQESGGGVVQPGGSLRLSCAASGFTFDDYAMSWVRQAPGKGLEWVSSIYMYDSSTYYADSVKGRFTISTDNAKNTVYLQMNSLKSEDTAVYYCAKDINRSYGSSWSHFGPIFSSWGQGTQVTVSS VL: QAVVTQEPSLSVSPGGTVTLTCGLTSGSVTSSNYPDWYQQTPGQAPRLLIYNTNSRHSGVPSRFSGSISGNKAALTITGAQPEDEADYYCNLYMGSGGSKVFGGGTKLTVLG |
